Assay results as given in patent US10479777B2, “Herbicidal azines” (BASF SE, priority 2013, dated 2019).
Some of these results come from one statement about several compounds together.

Assays:
Assay in all cases: greenhouse test, pre-emergence treatment
Type in all cases: in vivo
Details in all cases: 125 g/ha, scale from 0 to 100
[1] = test system: Polygonum convolvulus
Description: (§1) The culture containers used were plastic flowerpots containing loamy sand with approximately 3.0% of humus as the substrate. The seeds of the test plants were sown separately for each species.
(§2) For the pre-emergence treatment, the active ingredients, which had been suspended or emulsified in water, were applied directly after sowing by means of finely distributing nozzles. The containers were irrigated gently to promote germination and growth and subsequently covered with transparent plastic hoods until the plants had rooted. This cover caused uniform germination of the test plants, unless this had been impaired by the active ingredients. For the post-emergence treatment, the test plants were first grown to a height of 3 to 15 cm, depending on the plant habit, and only then treated with the active ingredients which had been suspended or emulsified in water. For this purpose, the test plants were either sown directly and grown in the same containers, or they were first grown separately as seedlings and transplanted into the test containers a few days prior to treatment.
(§3) Depending on the species, the plants were kept at 10-25° C. or 20-35° C., respectively. The test period extended over 2 to 4 weeks. During this time, the plants were tended, and their response to the individual treatments was evaluated.
(§4) Evaluation was carried out using a scale from 0 to 100. 100 means no emergence of the plants, or complete destruction of at least the aerial moieties, and 0 means no damage, or normal course of growth. A moderate herbicidal activity is given at values of at least 60, a good herbicidal activity is given at values of at least 70, and a very good herbicidal activity is given at values of at least 85.
(§5) The plants used in the greenhouse experiments were of the following species: […]

[2] = test system: Stellaria media
Description: as §1, §2, §3, §4, §5

[3] = test system: Amaranthus retroflexus
Description: as §1, §2, §3, §4, §5

Q: For CC(C)c1nc(N)nc(Nc2c(F)c(F)nc(F)c2F)n1 [Example 55], which herbicidal activity [1] is on record?
A: The herbicidal activity was “very good (a very good herbicidal activity is given at values of at least 85)”.

Q: What about the herbicidal activity [2] of the same compound?
A: The herbicidal activity was “very good (a very good herbicidal activity is given at values of at least 85)”.

Q: And the herbicidal activity [3]?
A: The herbicidal activity was “very good (a very good herbicidal activity is given at values of at least 85)”.
